No constants are given. Whether binding was seen depends on the method and setting. Binding seen in cells or lysates may run through a third protein. Here binding means that the protein was enriched with, or labelled near, the bait; the list need not be complete.
Biological target: PARK7/DJ-1 (human (endogenous in primary Tregs/Teffs)) (UniProt Q99497)
Assay: affinity purification with mass spectrometry

Amino acid sequences for entries named in this document (tags omitted).
UniProt Q99497: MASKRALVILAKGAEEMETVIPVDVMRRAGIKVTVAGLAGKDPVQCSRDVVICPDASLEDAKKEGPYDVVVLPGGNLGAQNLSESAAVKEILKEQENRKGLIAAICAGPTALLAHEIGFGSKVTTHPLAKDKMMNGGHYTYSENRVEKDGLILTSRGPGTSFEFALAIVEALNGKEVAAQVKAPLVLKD

Row | binding | Binder
1 | binds | pyruvate dehydrogenase (lipoamide) beta (protein, UniProt P11177 31-359) LQVTVRDAINQGMDEELERDEKVFLLGEEVAQYDGAYKVSRGLWKKYGDKRIIDTPISEMGFAGIAVGAAMAGLRPICEFMTFNFSMQAIDQVINSAAKTYYMSGGLQPVPIVFRGPNGASAGVAAQHSQCFAAWYGHCPGLKVVSPWNSEDAKGLIKSAIRDNNPVVVLENELMYGVPFEFPPEAQSKDFLIPIGKAKIERQGTHITVVSHSRPVGHCLEAAAVLSKEGVECEVINMRTIRPMDMETIEASVMKTNHLVTVEGGWPQFGVGAEICARIMEGPAFNFLDAPAVRVTGADVPMPYAKILEDNSIPQVKDIIFAIKKTLNI
2 | binds | KHSRP (protein, UniProt Q92945 1-711) MSDYSTGGPPPGPPPPAGGGGGAGGAGGGPPPGPPGAGDRGGGGPGGGGPGGGSAGGPSQPPGGGGPGIRKDAFADAVQRARQIAAKIGGDAATTVNNSTPDFGFGGQKRQLEDGDQPESKKLASQGDSISSQLGPIHPPPRTSMTEEYRVPDGMVGLIIGRGGEQINKIQQDSGCKVQISPDSGGLPERSVSLTGAPESVQKAKMMLDDIVSRGRGGPPGQFHDNANGGQNGTVQEIMIPAGKAGLVIGKGGETIKQLQERAGVKMILIQDGSQNTNVDKPLRIIGDPYKVQQACEMVMDILRERDQGGFGDRNEYGSRIGGGIDVPVPRHSVGVVIGRSGEMIKKIQNDAGVRIQFKQDDGTGPEKIAHIMGPPDRCEHAARIINDLLQSLRSGPPGPPGGPGMPPGGRGRGRGQGNWGPPGGEMTFSIPTHKCGLVIGRGGENVKAINQQTGAFVEISRQLPPNGDPNFKLFIIRGSPQQIDHAKQLIEEKIEGPLCPVGPGPGGPGPAGPMGPFNPGPFNQGPPGAPPHAGGPPPHQYPPQGWGNTYPQWQPPAPHDPSKAAAAAADPNAAWAAYYSHYYQQPPGPVPGPAPAPAAPPAQGEPPQPPPTGQSDYTKAWEEYYKKIGQQPQQPGAPPQQDYTKAWEEYYKKQAQVATGGGPGAPPGSQPDYSAAWAEYYRQQAAYYGQTPGPGGPQPPPTQQGQQQAQ
3 | binds | HNRNPH3 (protein, UniProt P31942 1-346) MDWVMKHNGPNDASDGTVRLRGLPFGCSKEEIVQFFQGLEIVPNGITLTMDYQGRSTGEAFVQFASKEIAENALGKHKERIGHRYIEIFRSSRSEIKGFYDPPRRLLGQRPGPYDRPIGGRGGYYGAGRGSMYDRMRRGGDGYDGGYGGFDDYGGYNNYGYGNDGFDDRMRDGRGMGGHGYGGAGDASSGFHGGHFVHMRGLPFRATENDIANFFSPLNPIRVHIDIGADGRATGEADVEFVTHEDAVAAMSKDKNNMQHRYIELFLNSTPGGGSGMGGSGMGGYGRDGMDNQGGYGSVGRMGMGNNYSGGYGTPDGLGGYGRGGGGSGGYYGQGGMSGGGWRGMY
4 | binds | SART1 (protein, UniProt O43290 1-800) MGSSKKHRGEKEAAGTTAAAGTGGATEQPPRHREHKKHKHRSGGSGGSGGERRKRSRERGGERGSGRRGAEAEARSSTHGRERSQAEPSERRVKREKRDDGYEAAASSKTSSGDASSLSIEETNKLRAKLGLKPLEVNAIKKEAGTKEEPVTADVINPMALRQREELREKLAAAKEKRLLNQKLGKIKTLGEDDPWLDDTAAWIERSRQLQKEKDLAEKRAKLLEEMDQEFGVSTLVEEEFGQRRQDLYSARDLQGLTVEHAIDSFREGETMILTLKDKGVLQEEEDVLVNVNLVDKERAEKNVELRKKKPDYLPYAEDESVDDLAQQKPRSILSKYDEELEGERPHSFRLEQGGTADGLRERELEEIRAKLRLQAQSLSTVGPRLASEYLTPEEMVTFKKTKRRVKKIRKKEKEVVVRADDLLPLGDQTQDGDFGSRLRGRGRRRVSEVEEEKEPVPQPLPSDDTRVENMDISDEEEGGAPPPGSPQVLEEDEAELELQKQLEKGRRLRQLQQLQQLRDSGEKVVEIVKKLESRQRGWEEDEDPERKGAIVFNATSEFCRTLGEIPTYGLAGNREEQEELMDFERDEERSANGGSESDGEENIGWSTVNLDEEKQQQDFSASSTTILDEEPIVNRGLAAALLLCQNKGLLETTVQKVARVKAPNKSLPSAVYCIEDKMAIDDKYSRREEYRGFTQDFKEKDGYKPDVKIEYVDETGRKLTPKEAFRQLSHRFHGKGSGKMKTERRMKKLDEEALLKKMSSSDTPLGTVALLQEKQKAQKTPYIVLSGSGKSMNANTITK

Source: article doi:10.1101/2019.12.20.884809
